Laboratory results taken from PubChem BioAssay AID588397 (National Center for Advancing Translational Sciences (NCATS), 2011).
Among all 1,300 compounds or so, about 1,000 (77%) were called active. The set was probably picked from earlier hits. Inconclusive results, whose numbers are uncertain, are shown with a selection of clear calls. Calls follow the shape of the dose curve; as a rule, active = well fitted inhibition curve with a large enough effect; inconclusive = small, poorly fitted or top-dose-only effect; inactive = no such curve, though single readings can be large or run the other way. Where the call is inconclusive, the potency comes from a doubtful curve fit.
Potency is read from the fitted curve at half-maximal effect.

Assay: qHTS of small molecules that selectively kill Giardia lamblia: Hit Validation.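 Also: viability measured as ATP content by luminescence so killing lowers signal; nearly all actives have a fitted effect of over 65% in size.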
Settings: Giardia lamblia trophozoite viability, dose-response
From the text: Giardia lamblia is a human pathogen afflicting impoverished nations, and the most common cause of outbreaks of diarrhea in the United States. Giardia has been classified by the CDC as a category B bioterrorism organism. The favored anti giardiasis drugs in the US are metronidazole or tinidazole, compounds that have undesirable side effects. Moreover, increasing resistance to drug regimes and recurrence are a concern. It is thus clear that alternative drug treatments are needed.
In a collaboration between the University of Maryland, College Park and the NIH Chemical Genomics Center, a bioluminescence Giardia viability assay based on the trophozoites' ATP content was developed. This assay is suitable for high throughput screening, and miniaturized the assay for compound screening in 1536-well plates. The goal of the project is to screen the Molecular Libraries Small Molecule Repository (MLSMR) for compounds that selectively kill Giardia trophozoites.
NIH Chemical Genomics Center [NCGC]
NIH Molecular Libraries Probe Centers Network [MLPCN]
Assay Submitter (PI): Osnat Herzberg, University of Maryland, College Park, MD.
1. Dispense 2 ul/well media
2. Dispense 23 nl/well compounds
3. Dispense 4 ul/well Giardia trophozoites at a concentration of 100 cells/well
4. Incubate 48 hrs at 37 deg C anaerobically
5. Dispense 4 ul/well ATPLite 1-Step Luminescence assay kit
6. Incubate 15-30 min at room temperature
7. Read luminescence signal on ViewLux plate reader
For `Cc1nc2c(=O)n(C)c(=O)nc-2n(C)n1`, the Potency was active: 0.259 µM. In the case of `Nc1nc(F)nc2c1ncn2[C@@H]1O[C@H](CO)[C@@H](O)[C@@H]1O`, the Potency is reported as inconclusive: 7.29 µM [inhibitor, partial curve]. With `CC(C)c1ccc(N=Nc2c(O)[nH]c(=O)[nH]c2=O)cc1` the Potency was inconclusive: 91.8 µM [inhibitor, partial curve]. With `CCOc1ccc(-n2c(-c3cccs3)nc3ccccc3c2=O)cc1` the Potency was inconclusive: 18.3 µM [inhibitor, partial curve].
